In publication PMC9433418:
No constants are given. Whether binding was seen depends on the method and setting. In cells and extracts the contact can be indirect. Some results given as binding are weak or reduced against the parent protein; the word gives no strength.

T1: Smad4 (human (endogenous in hVA-MSC)), Q13485
T1 chain: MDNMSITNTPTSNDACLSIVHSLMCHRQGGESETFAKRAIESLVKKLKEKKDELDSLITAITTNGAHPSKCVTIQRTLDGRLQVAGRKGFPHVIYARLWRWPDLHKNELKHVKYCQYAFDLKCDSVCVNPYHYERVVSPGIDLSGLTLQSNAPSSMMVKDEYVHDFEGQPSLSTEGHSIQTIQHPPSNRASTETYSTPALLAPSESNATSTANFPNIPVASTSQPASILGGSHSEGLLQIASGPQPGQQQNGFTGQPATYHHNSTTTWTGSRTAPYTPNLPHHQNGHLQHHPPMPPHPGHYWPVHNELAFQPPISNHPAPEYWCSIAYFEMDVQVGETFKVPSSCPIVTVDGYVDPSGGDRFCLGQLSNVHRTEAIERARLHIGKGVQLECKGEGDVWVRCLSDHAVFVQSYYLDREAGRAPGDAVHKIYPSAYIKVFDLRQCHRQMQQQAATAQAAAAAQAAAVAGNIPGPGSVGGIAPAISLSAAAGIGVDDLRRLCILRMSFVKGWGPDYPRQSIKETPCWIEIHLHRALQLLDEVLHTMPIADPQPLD


Key:
[1] = target: T1, Smad4 (human (endogenous in hVA-MSC)), …; assay: co-IP; lysates of hVA-MSC after 10 days of adipogenic induction with/out IFNγ (10 ng/ml) and/or Galunisertib (20 µM), collected under non-denaturing condition; ~300 µg protein per IP; monoclonal antibodies against STAT5, Smad3 or Smad4, 4 °C overnight; Protein A/G magnetic beads; washed in TBST + 0.1% TritonX100; western blot; details: remark: other sources report otherwise
[2] = target: Smad3 (human (endogenous in hVA-MSC)), P84022; assay: as above; details: remark: other sources report otherwise

binding [1] | binding [2] | Binder
binds |  | Smad3, P84022 1-425 (protein) MSSILPFTPPIVKRLLGWKKGEQNGQEEKWCEKAVKSLVKKLKKTGQLDELEKAITTQNVNTKCITIPRSLDGRLQVSHRKGLPHVIYCRLWRWPDLHSHHELRAMELCEFAFNMKKDEVCVNPYHYQRVETPVLPPVLVPRHTEIPAEFPPLDDYSHSIPENTNFPAGIEPQSNIPETPPPGYLSEDGETSDHQMNHSMDAGSPNLSPNPMSPAHNNLDLQPVTYCEPAFWCSISYYELNQRVGETFHASQPSMTVDGFTDPSNSERFCLGLLSNVNRNAAVELTRRHIGRGVRLYYIGGEVFAECLSDSAIFVQSPNCNQRYGWHPATVCKIPPGCNLKIFNNQEFAALLAQSVNQGFEAVYQLTRMCTIRMSFVKGWGAEYRRQTVTSTPCWIELHLNGPLQWLDKVLTQMGSPSIRCSSVS
 | binds | Smad4, Q13485 1-552 (protein) MDNMSITNTPTSNDACLSIVHSLMCHRQGGESETFAKRAIESLVKKLKEKKDELDSLITAITTNGAHPSKCVTIQRTLDGRLQVAGRKGFPHVIYARLWRWPDLHKNELKHVKYCQYAFDLKCDSVCVNPYHYERVVSPGIDLSGLTLQSNAPSSMMVKDEYVHDFEGQPSLSTEGHSIQTIQHPPSNRASTETYSTPALLAPSESNATSTANFPNIPVASTSQPASILGGSHSEGLLQIASGPQPGQQQNGFTGQPATYHHNSTTTWTGSRTAPYTPNLPHHQNGHLQHHPPMPPHPGHYWPVHNELAFQPPISNHPAPEYWCSIAYFEMDVQVGETFKVPSSCPIVTVDGYVDPSGGDRFCLGQLSNVHRTEAIERARLHIGKGVQLECKGEGDVWVRCLSDHAVFVQSYYLDREAGRAPGDAVHKIYPSAYIKVFDLRQCHRQMQQQAATAQAAAAAQAAAVAGNIPGPGSVGGIAPAISLSAAAGIGVDDLRRLCILRMSFVKGWGPDYPRQSIKETPCWIEIHLHRALQLLDEVLHTMPIADPQPLD
